This passage reports survivor count and T/C results from PubChem BioAssay AID208 (DTP/NCI, 2004).

The test system of this test is HT29 intrarenal xenograft, nude mice, tumor weight change. Briefly: NCI In Vivo Anticancer Drug Screen. Data for tumor model HT29;CX-1 Human Adenocarcinoma (MER+) (intrarenal inoculation) in NU/NU BALB/C (nude) mice. The conditions noted are these: T/C endpoint: mean tumor weight change, higher T/C = larger tumour. On the procedure:
The antitumor activity of compounds was measured in mice bearing transplantable tumors. Survival or tumor size were measured and the results are expressed as the measurement made in the treated group (T) divided by the measurement made in the vehicle treated control group (C). The tumor model used in this assay is HT29;CX-1 Human Adenocarcinoma (MER+) (intrarenal inoculation) in NU/NU BALB/C (nude) mice

Where [1] appears, read: dose: 1200.0 mg/kg/injection, schedule: Q04DX004 (sc), vehicle: saline.
[2] abbreviates: dose: 1600.0 mg/kg/injection, schedule: Q04DX004 (sc), vehicle: saline with Tween-80.

The list shows only some results of the screen, not a fair sample: it gathers tests that were run many times, whatever their T/C, doses with no T/C, and many T/C values between a quarter and a half above the control. Further doses and runs are listed elsewhere. T/C: endpoint of the treated group in % of that of the vehicle group. Schedules are NCI's codes, taken here to give the interval after Q, in days (D) or hours (H), and the number of doses after X. Some T/C values carry the count of animals alive at the toxicity check (mostly the fifth day); where none is given, no animal had died by that day. Some doses were run more than once; their values stand side by side, smallest first. Some entries give survivors of the animals treated and no T/C: the source holds a T/C of zero for them, seemingly a mark for toxic or unscored doses. Survivors were counted at the toxicity check, usually on the fifth day, unless a day is given; later deaths do not show.

For `CN(N=O)C(=O)N[C@@H](C=O)[C@@H](O)[C@H](O)[C@H](O)CO`, the survivor count is 0 of 6 on day 15 (dose: 600.0 mg/kg/injection, schedule: Q04DX004 (sc), vehicle: saline) and 0 of 6 on day 15 under setting [1].

In the case of `Oc1cccc2ccccc12`, the survivor count (dose: 300.0 mg/kg/injection, schedule: Q04DX004 (ip), vehicle: water) is on record as 2 of 6 on day 15; the survivor count (dose: 600.0 mg/kg/injection, schedule: Q04DX004 (ip), vehicle: water) was 0 of 6 on day 15; the survivor count (dose: 1200.0 mg/kg/injection, schedule: Q04DX004 (ip), vehicle: water) was 0 of 6 on day 15.

As to `NC(=O)CCC(N)C(=O)O` (stereo not given), under “dose: 300.0 mg/kg/injection, schedule: Q04DX004 (ip), vehicle: suspension in saline, evaluated on day 15”, the T/C is 143 % of control.

For `Nc1nnc[se]1`, under setting [2], the survivor count is recorded as 1 of 6 on day 15.

In the case of `Nc1ccc(Cn2ccc3c4c(N)nc(N)nc4ccc32)cc1`, the survivor count was 0 of 6 on day 15 (dose: 75.0 mg/kg/injection, schedule: Q04DX004 (sc), vehicle: saline with Tween-80) and 0 of 6 on day 15 (dose: 150.0 mg/kg/injection, schedule: Q04DX004 (sc), vehicle: saline with Tween-80).

`CC1=C(O)C(=O)[C@@H]2O[C@@H]2C1=O`: the survivor count runs as follows: (dose: 75.0 mg/kg/injection, schedule: Q04DX004 (sc), vehicle: saline) 1 of 6 on day 15; (dose: 150.0 mg/kg/injection, schedule: Q04DX004 (sc), vehicle: saline) 0 of 6 on day 15; (dose: 300.0 mg/kg/injection, schedule: Q04DX004 (sc), vehicle: saline) 0 of 6 on day 15.

`O=c1[nH]cc(F)c(=O)[nH]1`: the T/C is 9, 27, 52, 60 % of control [4 of 5 alive on day 15] (dose: 50.0 mg/kg/injection, schedule: Q04DX004 (ip), vehicle: saline, evaluated on day 15); 21 [5 of 6 alive on day 15], 24, 35, 48 % of control (dose: 75.0 mg/kg/injection, schedule: Q04DX004 (ip), vehicle: saline, evaluated on day 15); 16 [4 of 6 alive on day 15] and 32 % of control [5 of 6 alive on day 15] (dose: 112.0 mg/kg/injection, schedule: Q04DX004 (ip), vehicle: saline, evaluated on day 15). Also, the survivor count is listed as 3 of 6 on day 15 (dose: 75.0 mg/kg/injection, schedule: Q04DX004 (ip), vehicle: saline) and 1 of 6 on day 15, 2 of 5 on day 15, 3 of 6 on day 15 (dose: 112.0 mg/kg/injection, schedule: Q04DX004 (ip), vehicle: saline).

As to `C=CS(=O)(=O)c1ccccc1`, the T/C (dose: 25.0 mg/kg/injection, schedule: Q01DX010 (sc), vehicle: saline, evaluated on day 11) is 130 % of control. Moreover, the survivor count (dose: 200.0 mg/kg/injection, schedule: Q01DX010 (sc), vehicle: saline) was 0 of 3 on day 11.

With `CCC1=C[C@H]2CN(CCc3c([nH]c4ccccc34)[C@@](C(=O)OC)(c3cc4c(cc3OC)N(C)[C@H]3[C@@](O)(C(=O)OC)[C@H](OC(C)=O)[C@]5(CC)C=CCN6CC[C@]43[C@@H]65)C2)C1`, the T/C (dose: 3.0 mg/kg/injection, schedule: Q04DX004 (sc), vehicle: water, evaluated on day 15) is 136 % of control. In addition, the survivor count (dose: 24.0 mg/kg/injection, schedule: Q04DX004 (sc), vehicle: water) was 2 of 6 on day 15.

`C=CC(C)(C)n1cc(C2=C(O)C(=O)C(c3cn(C(C)(C)C=C)c4ccccc34)=C(O)C2=O)c2ccccc21`: the T/C (dose: 50.0 mg/kg/injection, schedule: Q04DX004 (sc), vehicle: Klucel (hydroxypropylcellulose) (HPC), evaluated on day 15) was 137 % of control.

As for `CC(=O)Oc1ccc[nH]c1=O`, under setting [2], the survivor count is reported as 0 of 6 on day 15.

`NCCCNCCSP(=O)(O)O`: the T/C (dose: 400.0 mg/kg/injection, schedule: Q04DX004 (sc), vehicle: saline, evaluated on day 15) is 128 % of control. In addition, the survivor count is on record as 1 of 6 on day 15 (dose: 800.0 mg/kg/injection, schedule: Q04DX004 (sc), vehicle: saline) and 0 of 6 on day 15 (dose: 1600.0 mg/kg/injection, schedule: Q04DX004 (sc), vehicle: saline).

As to `CC[C@@]1(O)C[C@H](OC2CC(N(C)C)C(OC3CC(O)C(OC4CCC(=O)C(C)O4)C(C)O3)C(C)O2)c2c(cc3c(c2O)C(=O)c2c(O)cccc2C3=O)[C@H]1C(=O)OC` (stereo not given in full), the survivor count reads like this: (dose: 4.0 mg/kg/injection, schedule: Q01DX010 (ip), vehicle: water) 0 of 6 on day 11; (dose: 8.0 mg/kg/injection, schedule: Q01DX010 (ip), vehicle: water) 0 of 6 on day 11.

Take `NC(=S)N/N=C/c1ccc(O)cn1`: the survivor count runs as follows: (dose: 400.0 mg/kg/injection, schedule: Q04DX004 (sc), vehicle: saline with Tween-80) 3 of 6 on day 15; (dose: 800.0 mg/kg/injection, schedule: Q04DX004 (sc), vehicle: saline with Tween-80) 0 of 6 on day 15; under setting [2], 0 of 6 on day 15.

`CC(C)C(N)C(=O)Nc1nncs1` (stereo not given): the survivor count under setting [1] is 0 of 6 on day 15.

`O=C1c2ccccc2C(=O)c2c(NCCNCCO)ccc(O)c21`: the T/C (dose: 50.0 mg/kg/injection, schedule: Q04DX004 (sc), vehicle: saline, evaluated on day 15) was 128 % of control.

For the compound `CCNC(C)(C)C(SSS)c1ccco1` (stereo not given), the survivor count (dose: 600.0 mg/kg/injection, schedule: Q04DX004 (sc), vehicle: saline with Tween-80) is 0 of 6 on day 15.

In the case of `CCOC(=O)C(N)CSC(=O)NC` (stereo not given), the survivor count (dose: 1200.0 mg/kg/injection, schedule: Q04DX004 (ip), vehicle: saline) was 3 of 6 on day 15 and the survivor count under setting [1] is on record as 2 of 6 on day 15.

Consider `Cc1cnc(/C=N\NC(N)=S)c2cccc(N)c12`, for which the survivor count runs as follows: (dose: 250.0 mg/kg/injection, schedule: Q04DX004 (ip), vehicle: saline with Tween-80) 2 of 6 on day 15; (dose: 500.0 mg/kg/injection, schedule: Q04DX004 (ip), vehicle: saline with Tween-80) 1 of 6 on day 15; (dose: 1000.0 mg/kg/injection, schedule: Q04DX004 (ip), vehicle: saline with Tween-80) 0 of 6 on day 15.

As for `CN(C)/N=N/c1nc[nH]c1C(N)=O`, the T/C (dose: 100.0 mg/kg/injection, schedule: Q04DX004 (ip), vehicle: Klucel (hydroxypropylcellulose) (HPC), evaluated on day 15) is 144 % of control; the T/C (dose: 150.0 mg/kg/injection, schedule: Q04DX004 (ip), vehicle: Klucel (hydroxypropylcellulose) (HPC), evaluated on day 15) was 140 % of control; the T/C (dose: 225.0 mg/kg/injection, schedule: Q04DX004 (ip), vehicle: Klucel (hydroxypropylcellulose) (HPC), evaluated on day 15) is 139 % of control; the T/C (dose: 225.0 mg/kg/injection, schedule: Q04DX004 (ip), vehicle: saline, evaluated on day 15) was 127 % of control.

Take `O=C(Nc1cc(Cl)ccc1C(=O)O)c1cccc(C[n+]2ccccc2)c1`: the T/C (dose: 75.0 mg/kg/injection, schedule: Q04DX004 (ip), vehicle: saline with Tween-80, evaluated on day 15) was 130 % of control. Where the note is “dose: 600.0 mg/kg/injection, schedule: Q04DX004 (ip), vehicle: saline with Tween-80”, the survivor count was 2 of 6 on day 15.

As to `CC(=O)Oc1[nH]c(=O)c2cccc3c2c1CCC3`, the T/C runs as follows: (dose: 600.0 mg/kg/injection, schedule: Q04DX004 (sc), vehicle: saline with Tween-80, evaluated on day 15) 138 % of control; (dose: 1200.0 mg/kg/injection, schedule: Q04DX004 (sc), vehicle: saline with Tween-80, evaluated on day 15) 140 % of control.

With `OCC1OC(n2cnc3c(=S)nc[nH]c32)C(O)C1O` (stereo not given), the T/C (dose: 1200.0 mg/kg/injection, schedule: Q04DX004 (sc), vehicle: saline, evaluated on day 15) was 149 % of control.

Regarding `CC(C)CCC(=O)c1ccoc1`, the survivor count is listed as 0 of 6 on day 11 (dose: 12.0 mg/kg/injection, schedule: Q01DX010 (ip), vehicle: saline with Tween-80) and 0 of 6 on day 11 (dose: 24.0 mg/kg/injection, schedule: Q01DX010 (ip), vehicle: saline with Tween-80).
